Reference: patent publication US20060188913A1, “Methods and products for enhancing immune responses using imidazoquinoline compounds” (University of Iowa Research Foundation, priority 2001, published 2006)
Entries after “also recorded” stand apart in the source; their conditions may differ. At least one compound was matched to its structure with a doubt left.

How the values were obtained:
Type in all cases: cell-based
[1] = target: T1, hTLR7 (Homo sapiens, UniProt Q9NYK1); test: NF-kappa B luciferase activation in 293-TLR9-Luc cells transfected with hTLR7; conditions: 293-TLR9-Luc cells co-expressing hTLR7 and hTLR9
T1 construct: plasmids (pcDNA3.1 constructs) coding for full length hTLR2, hTLR7, hTLR8 and hTLR9; expressed in transfected cells; host or cells: 293T cells
T1 sequence (Q9NYK1 27-1049): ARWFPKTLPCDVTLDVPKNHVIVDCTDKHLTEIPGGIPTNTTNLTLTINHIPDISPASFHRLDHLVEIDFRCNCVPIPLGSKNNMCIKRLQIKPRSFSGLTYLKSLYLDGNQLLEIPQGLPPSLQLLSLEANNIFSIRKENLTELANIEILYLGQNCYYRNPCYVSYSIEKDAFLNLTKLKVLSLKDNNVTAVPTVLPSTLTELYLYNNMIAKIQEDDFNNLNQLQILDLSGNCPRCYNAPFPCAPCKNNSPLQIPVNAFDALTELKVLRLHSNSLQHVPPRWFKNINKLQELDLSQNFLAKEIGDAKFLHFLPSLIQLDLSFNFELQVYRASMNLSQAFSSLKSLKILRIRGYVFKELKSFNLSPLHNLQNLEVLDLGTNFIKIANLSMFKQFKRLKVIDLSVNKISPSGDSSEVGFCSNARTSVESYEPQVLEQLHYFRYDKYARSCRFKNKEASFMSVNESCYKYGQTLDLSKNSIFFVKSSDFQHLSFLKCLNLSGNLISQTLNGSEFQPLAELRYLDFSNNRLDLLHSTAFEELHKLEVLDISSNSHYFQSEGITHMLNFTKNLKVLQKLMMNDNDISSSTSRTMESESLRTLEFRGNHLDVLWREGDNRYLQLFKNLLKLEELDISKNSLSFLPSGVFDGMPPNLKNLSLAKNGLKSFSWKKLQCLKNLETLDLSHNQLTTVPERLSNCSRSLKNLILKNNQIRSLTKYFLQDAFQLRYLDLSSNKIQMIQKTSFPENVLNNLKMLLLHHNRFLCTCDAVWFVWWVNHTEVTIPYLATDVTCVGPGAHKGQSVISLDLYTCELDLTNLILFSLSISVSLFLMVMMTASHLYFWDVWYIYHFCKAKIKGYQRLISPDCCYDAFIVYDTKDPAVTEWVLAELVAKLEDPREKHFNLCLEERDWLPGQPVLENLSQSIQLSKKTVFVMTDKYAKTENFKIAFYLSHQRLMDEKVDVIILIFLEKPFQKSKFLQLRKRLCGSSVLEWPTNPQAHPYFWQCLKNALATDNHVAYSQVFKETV

[2] = target: T2, hTLR8 (Homo sapiens, UniProt Q9NR97); test: NF-kappa B luciferase activation in 293-TLR9-Luc cells transfected with hTLR8
T2 construct: plasmids (pcDNA3.1 constructs) coding for full length hTLR2, hTLR7, hTLR8 and hTLR9; expressed in transfected cells; host or cells: 293T cells
T2 sequence (Q9NR97 27-1041): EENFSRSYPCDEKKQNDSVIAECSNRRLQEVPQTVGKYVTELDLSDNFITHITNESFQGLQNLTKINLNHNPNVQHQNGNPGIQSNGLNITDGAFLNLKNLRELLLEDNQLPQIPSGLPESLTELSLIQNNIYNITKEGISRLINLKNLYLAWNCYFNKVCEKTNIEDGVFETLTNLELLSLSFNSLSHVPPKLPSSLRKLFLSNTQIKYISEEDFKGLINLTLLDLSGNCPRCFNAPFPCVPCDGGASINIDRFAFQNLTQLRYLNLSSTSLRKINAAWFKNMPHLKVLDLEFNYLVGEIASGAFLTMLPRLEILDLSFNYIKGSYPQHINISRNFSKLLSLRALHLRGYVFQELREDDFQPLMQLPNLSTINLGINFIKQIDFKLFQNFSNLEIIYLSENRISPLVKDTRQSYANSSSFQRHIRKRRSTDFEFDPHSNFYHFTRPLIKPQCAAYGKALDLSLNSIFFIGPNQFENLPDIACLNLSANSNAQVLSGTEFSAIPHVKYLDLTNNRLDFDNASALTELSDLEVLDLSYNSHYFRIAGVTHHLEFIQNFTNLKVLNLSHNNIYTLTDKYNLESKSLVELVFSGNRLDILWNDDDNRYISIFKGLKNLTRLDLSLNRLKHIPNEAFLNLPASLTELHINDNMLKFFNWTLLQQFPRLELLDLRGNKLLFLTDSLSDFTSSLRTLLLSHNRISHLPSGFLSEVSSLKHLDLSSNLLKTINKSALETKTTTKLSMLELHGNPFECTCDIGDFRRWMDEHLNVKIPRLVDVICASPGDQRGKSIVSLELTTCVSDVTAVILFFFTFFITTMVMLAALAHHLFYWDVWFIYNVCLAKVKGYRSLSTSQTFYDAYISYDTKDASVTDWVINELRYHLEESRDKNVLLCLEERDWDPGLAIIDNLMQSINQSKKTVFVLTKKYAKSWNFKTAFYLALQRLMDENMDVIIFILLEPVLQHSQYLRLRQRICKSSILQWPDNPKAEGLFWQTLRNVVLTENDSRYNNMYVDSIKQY

[3] = target: T1, hTLR7; test: IL-8 production (ELISA) in hTLR7-transfected 293T cells; conditions: 293T cells transfected with hTLR7
[4] = target: T1, hTLR7; test: NF-kappa B luciferase activation in 293T cells transiently transfected with hTLR7
Experimental: Cells used for transfections were 293T (human embryo kidney cells, T-antigen transfected) or 293-TLR9-Luc (stable transfectants, human embryo kidney cells expressing the human TLR9 receptor and containing a genomic NF-kappa B-luciferase cassette).
Transfections were performed in six-well plates. Cells were plated the day before transfection at 4×10^5/well in DMEM+10% FCS.
Constructs: TLR cDNAs were cloned into pcDNA3.1. NF-kappa B activation was measured by using an 5× NF-kappa B-Luciferase construct (Stratagene). Transfection efficiency was determined by using a beta-galactosidase (beta-gal) reporter construct (p beta-Gal-Control, Clontech).
Stimulation was performed 24 h after transfection. Medium of the cells was reduced to 1 ml (without medium change) and cells were stimulated with indicated amounts of R-848, LPS, ODN 8954, 2006 and IL-1 beta for 16 h.
Cell extracts were prepared by lysing the cells in 100 μl reporter lysis buffer using the freeze-thaw method. NF-kappa B stimulation was measured through luciferase activity (Promega). All data were normalized for beta-gal expression. Stimulation indices were calculated in reference to luciferase activity of medium without addition of ODN.
293T cells, stably transfected with a NF-kappa B-luciferase reporter construct, were transiently transfected with plasmids (pcDNA3.1 constructs) coding for full length hTLR2, hTLR7, hTLR8 and hTLR9. […]

CCOCc1nc2c(N)nc3ccccc3c2n1CC(C)(C)O [R-848, Resiquimod]
NF-kappa B activation in response to R-848 (in words) [1]: did not yield NF-kappa B activation; also recorded: appeared to be inactive | increase in activation (NF-kappa B luciferase) ([2]; 2.5 μg/ml R-848): 5 fold | increase of activity (NF-kappa B luciferase) ([2]; 10 μg/ml R-848): 10 fold | NF-kappa B activation in response to R-848 (in words) ([2]; 293-TLR9-Luc cells co-expressing hTLR8 and hTLR9): yielded in NF-kappa B activation; also recorded: concentration dependent | IL-8 production (in words) [3]: slight increase of IL-8 production compared to background | concentration dependence of hTLR7 activation ([4]; FIG. 2B, 1 to 10 jig/ml R-848): concentration-independent; also recorded: did not appear to be concentration-dependent | NF-kappa B activation through hTLR7 (in words) ([4]; hTLR7-transfected 293T cells): activation of NF-kappa B signaling; also recorded: A response to R-848 was also seen
